# According to patent publication US7109223B2, “Oxazolidin-2-one and thiazolidin-2-one derivatives for use as EP4 receptor agonists in the treatment of glaucoma” (Merck & Co. Inc., priority 2002, dated 2006):
# At least one compound was matched to its structure with a doubt left.
# Test system: RCT-1 cells
# Assay: EP4 mRNA levels in RCT-1 cells (Northern blot)
# Type: cell-based, rat
# Conditions: RCT-1 cells treated with retinoic acid
structure (smiles),measurement,value
CC1=C(/C=C/C(C)=C/C=C/C(C)=C/C(=O)O)C(C)(C)CCC1 [retinoic acid],levels of EP4 mRNA,reduces
